Results taken from paper doi:10.1101/2025.09.26.678488.
Where a chain is given by its changes, count along the chain named. These are yes or no findings as the source states them, for the method shown. Binding seen in cells or lysates may run through a third protein. Some entries that bind do so weakly or less than the wild type. Tags and fused reporters may be left off the sequences shown.

T1: FLAG-PDZ_(DVL2) (minimal PDZ domain of DVL2, amino acids 265-361) (human) (UniProt O14641)
T1 sequence: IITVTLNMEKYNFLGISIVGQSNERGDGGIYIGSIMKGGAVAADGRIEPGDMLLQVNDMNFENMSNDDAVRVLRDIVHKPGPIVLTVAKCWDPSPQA

T2: FLAG-PDZ_(DVL2) V334E (human) (UniProt O14641)
T2 sequence: T1 sequence with V70E

B1: GFP-CT_(Daple) (C-terminal tail of Daple, amino acids 1378-2028) (domain or fragment, UniProt Q9P219 1378-2028)
chain: RRHKEKLEEKIMDQYKFYDPPPKKKNHWIGAKALVKLIKPKKEGSRERLKSTVDSPPWQLESSDPASPAASQPLRSQAENPDTPALGSNCAEERDAHNGSVGKGPGDLKPKRGSPHRGSLDRTDASTDLAMRSWPSELGSRTCSTSATTTAPSNSTPIARHPGRTKGYNSDDNLCEPSLEFEVPNHRQYVSRPSSLESSRNTSSNSSPLNLKGSSEQLHGRSESFSSEDLIPSRDLATLPREASTPGRNALGRHEYPLPRNGPLPQEGAQKRGTAPPYVGVRPCSASPSSEMVTLEEFLEESNRSSPTHDTPSCRDDLLSDYFRKASDPPAIGGQPGPPAKKEGAKMPTNFVAPTVKMAAPTSEGRPLKPGQYVKPNFRLTEAEAPPSVAPRQAQPPQSLSLGRPRQAPVPPASHAPASRSASLSRAFSLASADLLRASGPEACKQESPQKLGAPEALGGRETGSHTLQSPAPPSSHSLARERTPLVGKAGSSCQGPGPRSRPLDTRRFSLAPPKEERLAPLHQSATAPAIATAGAGAAAAGSGSNSQLLHFSPAAAPAARTKPKAPPRSGEVATITPVRAGLSLSEGDGVPGQGCSEGLPAKSPGRSPDLAPHLGRALEDCSRGSVSKSSPASPEPGGDPQTVWYEYGCV
B2: GFP-CTmin_(Daple) (minimal C-terminal polypeptide of Daple, amino acids 1925-2028) (domain or fragment, UniProt Q9P219 1925-2028)
chain: QLLHFSPAAAPAARTKPKAPPRSGEVATITPVRAGLSLSEGDGVPGQGCSEGLPAKSPGRSPDLAPHLGRALEDCSRGSVSKSSPASPEPGGDPQTVWYEYGCV
B3: GFP-CTΔPBM_(Daple) (minimal Daple CT that lacked its PBM) (domain or fragment, UniProt Q9P219 1925-2020)
chain: QLLHFSPAAAPAARTKPKAPPRSGEVATITPVRAGLSLSEGDGVPGQGCSEGLPAKSPGRSPDLAPHLGRALEDCSRGSVSKSSPASPEPGGDPQT

Legend:
[1] = target: T1, FLAG-PDZ_(DVL2) (minimal PDZ domain of DVL2, amino acids 265-361) (human); test: co-IP
[2] = target: T2, FLAG-PDZ_(DVL2) V334E (human); test: co-IP

Row | Binder | binding [1] | binding [2]
1 | B1 | binds | no binding
2 | B2 | binds | no binding
3 | B3 | no binding | 
